Source: article PMC8042168, “The cell surface hyaluronidase TMEM2 regulates cell adhesion and migration via degradation of hyaluronan at focal adhesion sites” (The Journal of Biological Chemistry, 2021)
These are yes or no findings as the source states them, for the method shown. Some binding calls cover weakened binding; strength is not graded here. Tags and fused reporters may be left off the sequences shown.

Chains of the proteins cited; added tags and fusions are not shown. Lines headed by an entry give the natural chain unless they say otherwise; changes in a name come on top.
UniProt P20701: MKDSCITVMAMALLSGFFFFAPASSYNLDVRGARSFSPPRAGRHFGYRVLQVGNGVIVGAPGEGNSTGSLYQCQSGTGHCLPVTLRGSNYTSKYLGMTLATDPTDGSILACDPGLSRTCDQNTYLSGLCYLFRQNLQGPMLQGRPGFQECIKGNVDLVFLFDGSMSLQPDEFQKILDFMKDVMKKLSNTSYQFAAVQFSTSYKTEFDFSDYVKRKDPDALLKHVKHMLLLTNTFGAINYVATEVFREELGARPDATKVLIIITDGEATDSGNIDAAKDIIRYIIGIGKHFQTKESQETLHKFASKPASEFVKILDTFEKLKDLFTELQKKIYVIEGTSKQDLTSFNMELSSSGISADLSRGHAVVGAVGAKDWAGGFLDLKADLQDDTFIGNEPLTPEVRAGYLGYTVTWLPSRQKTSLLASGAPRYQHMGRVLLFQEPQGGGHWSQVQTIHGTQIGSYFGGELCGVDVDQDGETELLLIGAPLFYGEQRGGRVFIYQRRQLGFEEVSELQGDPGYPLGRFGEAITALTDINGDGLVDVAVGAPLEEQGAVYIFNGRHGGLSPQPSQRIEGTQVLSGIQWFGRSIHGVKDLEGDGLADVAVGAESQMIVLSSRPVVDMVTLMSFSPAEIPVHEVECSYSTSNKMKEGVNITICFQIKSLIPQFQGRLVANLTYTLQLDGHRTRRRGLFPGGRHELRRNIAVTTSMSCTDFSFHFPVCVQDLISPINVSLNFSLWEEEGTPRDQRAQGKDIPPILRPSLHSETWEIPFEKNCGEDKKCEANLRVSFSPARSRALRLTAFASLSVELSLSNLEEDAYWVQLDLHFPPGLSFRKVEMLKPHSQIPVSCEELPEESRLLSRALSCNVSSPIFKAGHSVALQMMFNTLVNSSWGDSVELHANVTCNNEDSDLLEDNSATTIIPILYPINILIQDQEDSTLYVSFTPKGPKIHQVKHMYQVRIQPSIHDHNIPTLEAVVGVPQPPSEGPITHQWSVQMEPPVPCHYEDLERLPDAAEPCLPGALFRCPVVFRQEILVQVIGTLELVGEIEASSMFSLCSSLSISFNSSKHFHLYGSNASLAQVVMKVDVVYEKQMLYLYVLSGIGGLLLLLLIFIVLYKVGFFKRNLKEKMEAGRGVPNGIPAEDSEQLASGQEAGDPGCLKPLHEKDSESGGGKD

Target: T1, recombinant soluble TMEM2 extracellular domain, 6x His-tagged (mouse) (UniProt Q5FWI3)
T1 sequence: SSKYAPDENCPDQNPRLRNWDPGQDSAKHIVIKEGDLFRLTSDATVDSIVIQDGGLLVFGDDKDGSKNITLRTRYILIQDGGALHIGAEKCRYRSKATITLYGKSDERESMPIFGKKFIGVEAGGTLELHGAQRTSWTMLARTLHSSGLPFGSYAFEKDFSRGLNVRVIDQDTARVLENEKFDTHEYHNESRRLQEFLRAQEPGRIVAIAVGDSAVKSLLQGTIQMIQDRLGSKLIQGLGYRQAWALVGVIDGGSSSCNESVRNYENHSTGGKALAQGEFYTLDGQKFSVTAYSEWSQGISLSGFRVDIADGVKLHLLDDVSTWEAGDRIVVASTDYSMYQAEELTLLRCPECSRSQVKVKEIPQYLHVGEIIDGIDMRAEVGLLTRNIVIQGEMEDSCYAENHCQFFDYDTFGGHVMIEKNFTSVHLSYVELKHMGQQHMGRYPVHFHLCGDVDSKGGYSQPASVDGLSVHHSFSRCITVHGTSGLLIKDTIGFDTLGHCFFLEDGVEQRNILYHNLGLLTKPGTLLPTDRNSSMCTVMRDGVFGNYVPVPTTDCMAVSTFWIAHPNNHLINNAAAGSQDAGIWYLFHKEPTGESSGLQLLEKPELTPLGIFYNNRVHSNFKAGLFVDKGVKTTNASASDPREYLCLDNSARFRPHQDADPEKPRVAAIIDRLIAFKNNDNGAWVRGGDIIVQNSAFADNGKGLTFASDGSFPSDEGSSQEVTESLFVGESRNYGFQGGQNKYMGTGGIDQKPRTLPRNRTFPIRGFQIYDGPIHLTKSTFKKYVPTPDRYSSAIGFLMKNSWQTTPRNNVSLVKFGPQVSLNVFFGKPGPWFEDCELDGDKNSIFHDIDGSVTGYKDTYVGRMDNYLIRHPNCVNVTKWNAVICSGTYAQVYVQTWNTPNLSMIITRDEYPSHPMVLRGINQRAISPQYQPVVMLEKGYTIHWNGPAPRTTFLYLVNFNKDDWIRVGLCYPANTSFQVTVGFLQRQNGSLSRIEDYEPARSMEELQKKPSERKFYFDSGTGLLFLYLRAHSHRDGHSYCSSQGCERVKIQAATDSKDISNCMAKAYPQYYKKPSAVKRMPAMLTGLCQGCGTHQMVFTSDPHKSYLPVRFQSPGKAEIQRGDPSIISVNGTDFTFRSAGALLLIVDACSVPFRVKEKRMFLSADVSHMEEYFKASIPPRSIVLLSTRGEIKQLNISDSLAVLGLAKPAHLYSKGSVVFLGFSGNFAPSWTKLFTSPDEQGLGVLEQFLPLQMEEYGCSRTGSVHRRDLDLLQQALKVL
Assay: pull-down; TMEM2–ECD-His6 (about 5 μg/20 μl) held on ProBond nickel chelating resin; 2 μg recombinant integrin ECD heterodimer incubated in HBSS++ overnight at 4 °C; control unbound resin; blots; both purified

binding: binds
Substance: αLβ2 ECD heterodimer (lymphocyte function-associated antigen-1) (from UniProt P20701 26-1090; P05107 23-700) (complex)
